Experimental data from US10392401B2, “Crystal form A of compound and preparation method thereof” (SHANGHAI INSTITUTE OF MATERIA MEDICA, CHINESE ACADEMY OF …, priority 2015, dated 2019).
The name of at least one read-out is uncertain.

Experiment: Oral absorption and bioavailability compared with amorphous powder
Type: in vivo
Details: versus amorphous powder

COC(=O)c1cc2nc(N3CCC[C@@H](N)C3)n(Cc3ccccc3C#N)c(=O)c2s1 [crystal form A, (R)-methyl-2-(3-aminopiperidin-1-yl)-3-(2-cyanobenzyl)-4-carbonyl-3,4-dihydrothiop hene[3,2-d] pyrimidine-6-carboxylic acid]
bioavailability compared with amorphous powder: improve bioavailability
